No constants are given. Whether binding was seen depends on the method and setting. Binding seen in cells or lysates may run through a third protein. Some entries that bind do so weakly or less than the wild type.
Biological target: T1, Tudor staphylococcal nuclease (Tudor-SN) (bovine (endogenous in BMEC)) (UniProt Q863B3)
T1 sequence: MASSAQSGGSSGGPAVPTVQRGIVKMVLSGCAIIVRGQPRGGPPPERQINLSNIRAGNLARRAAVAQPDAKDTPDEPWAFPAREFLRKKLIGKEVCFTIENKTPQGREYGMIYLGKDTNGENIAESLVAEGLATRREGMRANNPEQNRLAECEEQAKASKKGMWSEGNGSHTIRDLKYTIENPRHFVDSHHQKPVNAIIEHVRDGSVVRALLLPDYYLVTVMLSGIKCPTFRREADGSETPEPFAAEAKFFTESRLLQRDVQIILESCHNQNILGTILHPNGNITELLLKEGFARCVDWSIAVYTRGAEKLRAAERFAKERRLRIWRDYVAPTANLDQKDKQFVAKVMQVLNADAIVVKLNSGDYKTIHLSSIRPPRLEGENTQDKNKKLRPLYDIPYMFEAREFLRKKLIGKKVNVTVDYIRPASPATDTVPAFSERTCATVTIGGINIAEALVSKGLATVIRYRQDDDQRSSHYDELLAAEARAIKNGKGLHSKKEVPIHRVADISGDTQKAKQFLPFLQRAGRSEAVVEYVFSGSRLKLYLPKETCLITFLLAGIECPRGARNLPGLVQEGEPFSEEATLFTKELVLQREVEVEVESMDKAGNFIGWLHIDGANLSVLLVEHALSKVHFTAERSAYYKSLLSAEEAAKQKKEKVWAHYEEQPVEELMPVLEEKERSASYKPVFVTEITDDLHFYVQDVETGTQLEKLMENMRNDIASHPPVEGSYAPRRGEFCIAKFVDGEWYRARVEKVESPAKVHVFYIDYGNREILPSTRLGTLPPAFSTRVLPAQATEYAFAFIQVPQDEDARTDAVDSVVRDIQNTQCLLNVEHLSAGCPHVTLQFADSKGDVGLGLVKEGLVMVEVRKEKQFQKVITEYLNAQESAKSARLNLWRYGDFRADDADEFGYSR
Experiment: co-IP; 200 ug nuclear protein lysate of BMEC on columns with 20 ug immobilised Tudor-SN antibody (Pierce Co-IP kit), overnight at 4 °C; blot for p-Stat5; control preimmune IgG; cells untreated or stimulated 24 h with Met (0.6 mmol/L) or estrogen (2.72 x 10^-2 ug/mL), interaction enhanced by Met and E

The chains behind the UniProt entries cited, without tags or fusion partners.
UniProt Q95115: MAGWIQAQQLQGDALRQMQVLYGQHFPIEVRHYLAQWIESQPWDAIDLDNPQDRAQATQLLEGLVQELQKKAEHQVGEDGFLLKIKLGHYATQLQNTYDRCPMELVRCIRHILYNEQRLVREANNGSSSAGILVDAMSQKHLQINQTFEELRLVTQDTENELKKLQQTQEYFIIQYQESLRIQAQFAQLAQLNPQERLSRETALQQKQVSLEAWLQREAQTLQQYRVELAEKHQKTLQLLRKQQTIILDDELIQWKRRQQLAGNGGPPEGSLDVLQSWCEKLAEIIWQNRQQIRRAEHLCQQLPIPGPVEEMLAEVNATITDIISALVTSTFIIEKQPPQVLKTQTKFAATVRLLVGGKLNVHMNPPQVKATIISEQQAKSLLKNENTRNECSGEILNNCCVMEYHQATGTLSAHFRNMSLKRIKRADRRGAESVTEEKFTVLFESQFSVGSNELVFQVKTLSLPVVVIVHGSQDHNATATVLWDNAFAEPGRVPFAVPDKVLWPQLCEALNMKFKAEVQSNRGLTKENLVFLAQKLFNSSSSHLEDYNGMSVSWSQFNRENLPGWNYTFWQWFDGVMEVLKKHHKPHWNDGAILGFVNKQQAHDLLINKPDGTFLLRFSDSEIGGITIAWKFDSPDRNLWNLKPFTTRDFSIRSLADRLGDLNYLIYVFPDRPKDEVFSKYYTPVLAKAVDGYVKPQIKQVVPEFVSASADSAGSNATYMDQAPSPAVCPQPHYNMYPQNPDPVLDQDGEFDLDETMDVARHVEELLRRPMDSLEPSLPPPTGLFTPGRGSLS

binding: binds
Substance: p-Stat5 (phosphorylated signal transducer and activator of transcription 5) (from UniProt Q95115 1-794)
